Chains of the proteins cited; added tags and fusions are not shown.
UniProt Q9UM07, whole entry: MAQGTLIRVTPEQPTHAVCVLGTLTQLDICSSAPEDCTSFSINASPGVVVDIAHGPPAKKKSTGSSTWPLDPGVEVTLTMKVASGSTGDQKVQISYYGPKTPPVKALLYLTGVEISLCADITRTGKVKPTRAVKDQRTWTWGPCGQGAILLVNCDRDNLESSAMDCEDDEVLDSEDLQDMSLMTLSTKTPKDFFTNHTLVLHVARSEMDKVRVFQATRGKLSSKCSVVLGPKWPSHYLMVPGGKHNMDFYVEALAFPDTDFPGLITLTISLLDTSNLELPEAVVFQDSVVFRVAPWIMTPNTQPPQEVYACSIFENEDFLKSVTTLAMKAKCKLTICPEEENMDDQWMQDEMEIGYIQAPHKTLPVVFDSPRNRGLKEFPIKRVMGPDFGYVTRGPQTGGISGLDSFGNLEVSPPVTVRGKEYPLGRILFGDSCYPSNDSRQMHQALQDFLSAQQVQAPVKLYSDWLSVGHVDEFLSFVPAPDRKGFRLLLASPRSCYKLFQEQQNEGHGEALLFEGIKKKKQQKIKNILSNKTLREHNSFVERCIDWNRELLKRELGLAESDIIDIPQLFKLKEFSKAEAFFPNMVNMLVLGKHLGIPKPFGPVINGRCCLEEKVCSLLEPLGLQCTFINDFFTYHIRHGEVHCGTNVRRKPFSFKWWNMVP
UniProt Q9Z183, whole entry: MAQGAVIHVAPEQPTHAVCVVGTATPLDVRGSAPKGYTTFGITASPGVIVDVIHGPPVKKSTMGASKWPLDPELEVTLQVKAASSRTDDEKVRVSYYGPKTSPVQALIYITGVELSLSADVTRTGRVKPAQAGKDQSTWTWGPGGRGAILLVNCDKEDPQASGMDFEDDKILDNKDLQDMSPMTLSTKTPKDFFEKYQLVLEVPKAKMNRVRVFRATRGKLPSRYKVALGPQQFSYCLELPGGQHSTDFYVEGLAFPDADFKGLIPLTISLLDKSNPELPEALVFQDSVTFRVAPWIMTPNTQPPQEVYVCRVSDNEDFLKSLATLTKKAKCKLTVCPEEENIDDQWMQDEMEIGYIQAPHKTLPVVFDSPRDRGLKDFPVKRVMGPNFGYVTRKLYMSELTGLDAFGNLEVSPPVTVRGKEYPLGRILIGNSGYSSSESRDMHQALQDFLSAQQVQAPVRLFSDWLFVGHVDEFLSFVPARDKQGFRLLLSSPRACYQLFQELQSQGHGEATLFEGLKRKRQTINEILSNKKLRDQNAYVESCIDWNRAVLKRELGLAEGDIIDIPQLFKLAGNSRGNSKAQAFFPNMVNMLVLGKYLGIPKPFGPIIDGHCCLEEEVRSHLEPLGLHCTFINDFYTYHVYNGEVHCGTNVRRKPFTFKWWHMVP

According to patent publication US9963448B2, “Bicyclic inhibitors of PAD4” (Padlock Therapeutics, Inc., priority 2015, dated 2018):

Columns and labels:
[1] = molecular target: hPAD4 (Homo sapiens, UniProt Q9UM07); assay: hPAD4 RFMS (RapidFire mass spectrometry) PAD4 inhibition assay; conditions: hPAD4 enzyme, RFMS readout, tested form: HCl; for hPAD4 RFMS pIC50: pIC50=−log(IC50); for IC50: read-out: hPAD4 RFMS IC50 μM;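 for hPAD4 RFMS pIC50: grade E means pIC50 at most 4 and F means pIC50 4.0 to 5.0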
[2] = molecular target: mPAD4 (Mus musculus, UniProt Q9Z183); assay: mPAD4 RFMS PAD4 inhibition assay; conditions: mPAD4, RFMS readout, tested form: HCl; for mPAD4 RFMS pIC50: pIC50=−log(IC50); for IC50: read-out: mPAD4 RFMS IC50 μM;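 for mPAD4 RFMS pIC50: grade E means pIC50 at most 4 and F means pIC50 4.0 to 5.0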

hPAD4 RFMS pIC50 [1] | IC50 [1] [µM] | mPAD4 RFMS pIC50 [2] | IC50 [2] [µM] | Compound
F (pIC50 of 4.0-5.0) | > 10 | – | – | COc1cc(C(=O)N2CC[C@H]3CCN[C@H]3C2)cc2nc(-c3cc4cccnc4n3CC(F)(F)F)n(C)c12
G (pIC50 of 5.0-6.0) | 1 to 5 | G (pIC50 of 5.0-6.0) | 1 to 5 | COc1cc(C(=O)N2CC[C@@H]3CCN[C@@H]3C2)cc2nc(-c3cc4cccnc4n3CC(F)(F)F)n(C)c12
G (pIC50 of 5.0-6.0) | 1 to 5 | G (pIC50 of 5.0-6.0) | 5 to 10 | COc1cc(C(=O)N2CCC3CCNC3C2)cc2nc(-c3cc4cccnc4n3CC(F)(F)F)n(C)c12 (stereo not shown)

Structures were worked out from names or drawings and are uncertain.
